In publication PMC5640428:

Biological target: T1, native KCC2 (K+-Cl- cotransporter KCC2) (mouse (endogenous in brain)) (UniProt Q91V14)
T1 sequence: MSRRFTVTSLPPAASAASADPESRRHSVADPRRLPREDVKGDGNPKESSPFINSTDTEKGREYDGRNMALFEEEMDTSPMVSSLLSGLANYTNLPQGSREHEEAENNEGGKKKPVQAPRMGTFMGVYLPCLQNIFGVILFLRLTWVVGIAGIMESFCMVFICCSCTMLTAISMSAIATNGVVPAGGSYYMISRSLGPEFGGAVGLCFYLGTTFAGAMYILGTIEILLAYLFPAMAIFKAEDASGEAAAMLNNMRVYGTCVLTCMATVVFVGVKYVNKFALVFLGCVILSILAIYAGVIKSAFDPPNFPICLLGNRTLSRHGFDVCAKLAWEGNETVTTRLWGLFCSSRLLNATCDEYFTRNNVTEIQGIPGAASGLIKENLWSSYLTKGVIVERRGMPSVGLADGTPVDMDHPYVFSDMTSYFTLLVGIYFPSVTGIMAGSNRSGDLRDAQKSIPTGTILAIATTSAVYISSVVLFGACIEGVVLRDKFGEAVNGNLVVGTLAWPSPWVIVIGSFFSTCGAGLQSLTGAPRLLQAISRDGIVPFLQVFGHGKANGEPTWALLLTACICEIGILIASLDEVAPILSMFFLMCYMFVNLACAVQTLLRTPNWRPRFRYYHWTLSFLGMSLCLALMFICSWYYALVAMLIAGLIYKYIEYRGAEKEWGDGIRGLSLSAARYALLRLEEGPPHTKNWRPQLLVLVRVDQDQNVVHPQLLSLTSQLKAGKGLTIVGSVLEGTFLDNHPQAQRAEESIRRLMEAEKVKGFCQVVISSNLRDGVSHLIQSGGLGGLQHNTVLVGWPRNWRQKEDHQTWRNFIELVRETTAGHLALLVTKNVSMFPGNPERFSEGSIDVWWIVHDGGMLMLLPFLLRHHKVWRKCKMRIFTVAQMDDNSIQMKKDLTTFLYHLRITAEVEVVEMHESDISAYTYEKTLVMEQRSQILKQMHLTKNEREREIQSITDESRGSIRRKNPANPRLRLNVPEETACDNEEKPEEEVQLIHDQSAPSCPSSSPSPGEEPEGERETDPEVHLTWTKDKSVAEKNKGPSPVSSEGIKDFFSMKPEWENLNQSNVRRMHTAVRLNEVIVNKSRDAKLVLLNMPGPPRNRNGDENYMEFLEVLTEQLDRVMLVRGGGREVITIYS
Assay: affinity purification with mass spectrometry; C-terminal pan-KCC2 antibody (5 µg) on beads; CHAPS-solubilised membrane fractions (1 mg) of P50 mouse brain; parallel IgG control

binding: binds
B1: CD47 (protein, UniProt Q61735 19-303)
chain: QLLFSNVNSIEFTSCNETVVIPCIVRNVEAQSTEEMFVKWKLNKSYIFIYDGNKNSTTTDQNFTSAKISVSDLINGIASLKMDKRDAMVGNYTCEVTELSREGKTVIELKNRTVSWFSPNEKILIVIFPILAILLFWGKFGILTLKYKSSHTNKRIILLLVAGLVLTVIVVVGAILLIPGEKPVKNASGLGLIVISTGILILLQYNVFMTAFGMTSFTIAILITQVLGYVLALVGLCLCIMACEPVHGPLLISGLGIIALAELLGLVYMKFVASNQRTIQPPRNR

binding: binds
B2: RNF8 (protein, UniProt Q8VC56 1-488)
chain: MGEPDPLVSGQLAARRSWCLRRLGMDCEWLQLEAGTEVTIGRGLSVTYQLISKVCPLMISRSHCVLKQNPEGQWTIMDNKSLNGVWLNRERLAPLQGYCIRKGDHIQLGVPLESRETAEYEYEVIEEDWESLAPCLAPKNDQRMEKHKGSRTKRKFSSPGLENLPAEGSSDLRCPLANVASKPIEPEKLHGKGDASSQSLGCLCPGLTSLKASERAAGPHACSALPKVLELSCPKKQKACRPSASQNSLELFKVTMSRMLKLKTQMQEKQIAVLNVKRQTRKGSSKKIVRMEKELRNLQSQLYAEQAQQQARVEQLEKTFQEEAHYLQGLEKEQGECDLKQQLVQALQEHQALMEELNCSKKDFEKIIQAKNKELEQTKEEKDKVQAQKEEVLSHMNDLLENELQCIICSEYFIEAVTLNCAHSFCSFCINEWMKRKVECPICRKDIESRTNSLVLDNCISKMVDNLSSDVKERRSVLIRERRAKRLS

Results are given in words; binding and its absence hold for the method and conditions named. In cells and extracts the contact can be indirect. Here binding means that the protein was enriched with, or labelled near, the bait; the list need not be complete. Each block holds one binder with its values, some of them ahead of it.
